Measured values: US11091749B2, “Deimmunized lysostaphin and methods of use” (TRUSTEES OF DARTMOUTH COLLEGE, priority 2014, dated 2021)
Not every detail of the peptide structures is certain; ends, links or a residue may be inferred. Some results were stated once for a whole list of compounds, not compound by compound. Where no end group is shown, it is not given here.

Columns and labels:
DRB1*1501 = biological target: T1, DRB1*1501 (Homo sapiens, UniProt P01903+P01911); experiment: MHC II competition binding assay
T1 construct: purchased Benaroya Research Institute (Seattle, Wash.)
Description: MHC Binding Assays. […] Briefly, 100 nM biotinylated control peptides composed of known peptide antigens for each MHC II allele were incubated in polypropylene 384-well plates with 50 nM purified recombinant MHC II protein and serial dilutions of LST or variant peptide fragments (100 μM to 10 nM). Peptide-MHC II complexes were captured from equilibrated solutions using the conformation specific anti-HLA-DR antibody L243 coated on high binding ELISA plates. Bound control peptide was quantified using the DELFIA streptavidin-Europium conjugate and time resolved fluorescence (SpectraMax Gemini Fluorescence Microplate Reader).

DRB1*1101 = DRB1*1101 (Homo sapiens, UniProt P01903+P01911, A100R/A169T/A87E/I96F/K41T/L162R/M171V/P40S/Q125H/Q178H/Q39Y/Q99D/R42S/S66Y/T262R/V115G/W38E); experiment: MHC II competition binding assay
Description: MHC Binding Assays. MHC II competition binding assays were performed using a 384-well high throughput assay as previously described (Salvat, et al. (2014) supra). Binding assays were performed for the eight alleles: DRB1*0101, 0301, 0401, 0701, 0801, 1101, 1301, and 1501. Briefly, 100 nM biotinylated control peptides composed of known peptide antigens for each MHC II allele were incubated in polypropylene 384-well plates with 50 nM purified recombinant MHC II protein and serial dilutions of LST or variant peptide fragments (100 μM to 10 nM). Peptide-MHC II complexes were captured from equilibrated solutions using the conformation specific anti-HLA-DR antibody L243 coated on high binding ELISA plates. Bound control peptide was quantified using the DELFIA streptavidin-Europium conjugate and time resolved fluorescence (SpectraMax Gemini Fluorescence Microplate Reader).

GVDFFMNEGTPVHAISSGKIV [Design 41_46]
binder class DRB1*1501 (DRB1*1501): strong (strong binder if an IC50 value of less than 0.1 μM was observed)
binder class DRB1*1101 (DRB1*1101): strong (strong binder if an IC50 value of less than 0.1 μM was observed)
